The values below come from publication PMC6867850.

Amino acid sequences for entries named in this document (tags omitted).
UniProt P19474: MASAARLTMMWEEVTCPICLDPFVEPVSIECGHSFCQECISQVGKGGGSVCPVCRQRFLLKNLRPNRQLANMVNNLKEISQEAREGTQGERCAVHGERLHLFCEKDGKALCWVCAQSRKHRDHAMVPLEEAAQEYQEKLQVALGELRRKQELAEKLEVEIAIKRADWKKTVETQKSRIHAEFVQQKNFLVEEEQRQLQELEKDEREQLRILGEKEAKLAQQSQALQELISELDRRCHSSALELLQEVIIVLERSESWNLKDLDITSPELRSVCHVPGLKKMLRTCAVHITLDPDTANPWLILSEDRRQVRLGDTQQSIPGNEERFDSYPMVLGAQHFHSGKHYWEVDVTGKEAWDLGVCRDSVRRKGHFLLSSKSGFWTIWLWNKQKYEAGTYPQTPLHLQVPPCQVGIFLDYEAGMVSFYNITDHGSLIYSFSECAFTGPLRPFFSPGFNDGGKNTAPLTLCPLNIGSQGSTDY
UniProt Q14457: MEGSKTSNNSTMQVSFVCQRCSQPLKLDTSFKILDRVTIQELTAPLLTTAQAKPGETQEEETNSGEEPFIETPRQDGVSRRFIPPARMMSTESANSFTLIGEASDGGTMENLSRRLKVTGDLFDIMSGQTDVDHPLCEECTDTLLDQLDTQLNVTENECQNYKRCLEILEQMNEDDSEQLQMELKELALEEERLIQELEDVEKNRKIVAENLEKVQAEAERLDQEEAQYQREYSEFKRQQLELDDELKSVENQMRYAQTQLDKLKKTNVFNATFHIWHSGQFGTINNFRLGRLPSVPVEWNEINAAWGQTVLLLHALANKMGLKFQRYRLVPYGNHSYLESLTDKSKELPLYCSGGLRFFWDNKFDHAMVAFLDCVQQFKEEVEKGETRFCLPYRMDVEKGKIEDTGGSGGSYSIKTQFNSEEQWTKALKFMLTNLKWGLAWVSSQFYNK
UniProt Q676U5: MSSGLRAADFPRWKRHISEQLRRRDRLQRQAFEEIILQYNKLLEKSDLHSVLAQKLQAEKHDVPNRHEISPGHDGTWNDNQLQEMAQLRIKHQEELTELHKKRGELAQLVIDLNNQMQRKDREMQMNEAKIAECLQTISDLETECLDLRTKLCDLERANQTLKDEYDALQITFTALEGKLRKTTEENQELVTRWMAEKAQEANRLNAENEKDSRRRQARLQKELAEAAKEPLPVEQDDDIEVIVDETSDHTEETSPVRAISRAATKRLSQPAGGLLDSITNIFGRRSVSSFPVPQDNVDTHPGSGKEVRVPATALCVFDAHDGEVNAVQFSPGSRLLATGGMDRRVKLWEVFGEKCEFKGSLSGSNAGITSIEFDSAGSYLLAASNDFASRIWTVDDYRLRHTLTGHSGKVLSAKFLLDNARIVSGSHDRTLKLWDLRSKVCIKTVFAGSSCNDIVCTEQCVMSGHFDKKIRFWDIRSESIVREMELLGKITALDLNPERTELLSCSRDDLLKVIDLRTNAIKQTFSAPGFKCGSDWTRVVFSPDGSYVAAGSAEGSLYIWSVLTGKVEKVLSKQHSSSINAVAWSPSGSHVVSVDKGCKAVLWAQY

No constants are given. Whether binding was seen depends on the method and setting. In cells and extracts the contact can be indirect. Some binding calls cover weakened binding; strength is not graded here.

In the experiment the target is Tripartite motif protein 21 (TRIM21) (human (endogenous in THP-1)) (UniProt P19474). Nature of the experiment: co-IP; anti-TRIM21 mouse monoclonal antibody cross-linked to protein A/G magnetic beads; 750 ug lysate of THP-1 cells harvested 30 min after infection with EHRL-4-opsonized E. chaffeensis; 1 h at RT; blots of the eluate.

Regarding beclin 1 (from UniProt Q14457 1-450), the binding entry is on record as “binds”. Under ATG16L1 (from UniProt Q676U5 1-607) stands “binds”.
